Experimental data: the supplement of paper PMC8728848
This is one part of the list.

Legend:
Test in all cases: glycan array binding signal (z-score within array); higher = stronger binding
Conditions in all cases: glycan notation: IUPAC condensed, linker removed
[1] = target: Neu5Ac(a2-3)GalNAc
In short: (§1)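 From the Consortium for Functional Glycomics database, 3228 arrays were curated, keeping only those whose protein sequence was available. Binding is given as a within-array Z-score averaged across arrays sharing a protein sequence and across linkers. Negative Z-scores can be read as non-binding.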

[2] = target: Neu5Ac(a2-3)GalNAc(b1-4)GlcNAc
In short: as §1

[3] = target: Neu5Ac(a2-3)[GalNAc(b1-4)]Gal(b1-4)Glc
In short: as §1

[4] = target: Neu5Ac(a2-3)[GalNAc(b1-4)]Gal(b1-4)GlcNAc
In short: as §1

[5] = target: Neu5Ac(a2-3)[GalNAc(b1-4)]Gal(b1-4)GlcNAc(b1-3)GalNAc
In short: as §1

[6] = target: Neu5Ac(a2-3)[Neu5Ac(a2-6)]GalNAc
In short: as §1

[7] = target: Neu5Ac(a2-6)Gal
In short: as §1

[8] = target: Neu5Ac(a2-6)Gal(b1-3)GlcNAc(b1-3)[Gal(b1-4)GlcNAc(b1-6)]Gal(b1-4)Glc
In short: as §1

[9] = target: Neu5Ac(a2-6)Gal(b1-4)Glc
In short: as §1

[10] = target: Neu5Ac(a2-6)Gal(b1-4)GlcNAc
In short: as §1

[11] = target: Neu5Ac(a2-6)Gal(b1-4)GlcNAc(b1-2)Man
In short: as §1

[12] = target: Neu5Ac(a2-6)Gal(b1-4)GlcNAc(b1-2)Man(a1-3)Man(b1-4)GlcNAc(b1-4)GlcNAc
In short: as §1

[13] = target: Neu5Ac(a2-6)Gal(b1-4)GlcNAc(b1-2)Man(a1-3)[Gal(b1-4)GlcNAc(b1-2)Man(a1-6)]Man(b1-4)GlcNAc(b1-4)GlcNAc
In short: as §1

[14] = target: Neu5Ac(a2-6)Gal(b1-4)GlcNAc(b1-2)Man(a1-3)[GlcNAc(b1-2)Man(a1-6)]Man(b1-4)GlcNAc(b1-4)GlcNAc
In short: as §1

[15] = target: Neu5Ac(a2-6)Gal(b1-4)GlcNAc(b1-2)Man(a1-3)[GlcNAc(b1-4)][Neu5Ac(a2-6)Gal(b1-4)GlcNAc(b1-2)Man(a1-6)]Man(b1-4)GlcNAc(b1-4)GlcNAc
In short: as §1

[16] = target: Neu5Ac(a2-6)Gal(b1-4)GlcNAc(b1-2)Man(a1-3)[Man(a1-6)]Man(b1-4)GlcNAc(b1-4)GlcNAc
In short: as §1

[17] = target: Neu5Ac(a2-6)Gal(b1-4)GlcNAc(b1-2)Man(a1-3)[Neu5Ac(a2-3)Gal(b1-4)GlcNAc(b1-2)Man(a1-6)]Man(b1-4)GlcNAc(b1-4)GlcNAc
In short: as §1

[18] = target: Neu5Ac(a2-6)Gal(b1-4)GlcNAc(b1-2)Man(a1-3)[Neu5Ac(a2-6)Gal(b1-4)GlcNAc(b1-2)Man(a1-6)]Man(b1-4)GlcNAc(b1-4)GlcNAc
In short: as §1

[19] = target: Neu5Ac(a2-6)Gal(b1-4)GlcNAc(b1-2)Man(a1-3)[Neu5Ac(a2-6)Gal(b1-4)GlcNAc(b1-2)Man(a1-6)]Man(b1-4)GlcNAc(b1-4)[Fuc(a1-6)]GlcNAc
In short: as §1

[20] = target: Neu5Ac(a2-6)Gal(b1-4)GlcNAc(b1-2)Man(a1-6)Man(b1-4)GlcNAc(b1-4)GlcNAc
In short: as §1

[21] = target: Neu5Ac(a2-6)Gal(b1-4)GlcNAc(b1-2)Man(a1-6)[Gal(b1-4)GlcNAc(b1-2)Man(a1-3)]Man(b1-4)GlcNAc(b1-4)GlcNAc
In short: as §1

[22] = target: Neu5Ac(a2-6)Gal(b1-4)GlcNAc(b1-2)Man(a1-6)[GlcNAc(b1-2)Man(a1-3)]Man(b1-4)GlcNAc(b1-4)GlcNAc
In short: as §1

[23] = target: Neu5Ac(a2-6)Gal(b1-4)GlcNAc(b1-2)Man(a1-6)[Man(a1-3)]Man(b1-4)GlcNAc(b1-4)GlcNAc
In short: as §1

[24] = target: Neu5Ac(a2-6)Gal(b1-4)GlcNAc(b1-2)[Neu5Ac(a2-6)Gal(b1-4)GlcNAc(b1-4)]Man(a1-3)[GlcNAc(b1-4)][Neu5Ac(a2-6)Gal(b1-4)GlcNAc(b1-2)[Neu5Ac(a2-6)Gal(b1-4)GlcNAc(b1-6)]Man(a1-6)]Man(b1-4)GlcNAc(b1-4)GlcNAc
In short: as §1

[25] = target: Neu5Ac(a2-6)Gal(b1-4)GlcNAc(b1-2)[Neu5Ac(a2-6)Gal(b1-4)GlcNAc(b1-4)]Man(a1-3)[GlcNAc(b1-4)][Neu5Ac(a2-6)Gal(b1-4)GlcNAc(b1-4)Man(a1-6)]Man(b1-4)GlcNAc(b1-4)GlcNAc
In short: as §1

[26] = target: Neu5Ac(a2-6)Gal(b1-4)GlcNAc(b1-2)[Neu5Ac(a2-6)Gal(b1-4)GlcNAc(b1-6)]Man(a1-6)[Neu5Ac(a2-6)Gal(b1-4)GlcNAc(b1-2)Man(a1-3)][GlcNAc(b1-4)]Man(b1-4)GlcNAc(b1-4)GlcNAc
In short: as §1

[27] = target: Neu5Ac(a2-6)Gal(b1-4)GlcNAc(b1-3)Gal(b1-3)GlcNAc
In short: as §1

[28] = target: Neu5Ac(a2-6)Gal(b1-4)GlcNAc(b1-3)Gal(b1-4)GlcNAc
In short: as §1

[29] = target: Neu5Ac(a2-6)Gal(b1-4)GlcNAc(b1-3)Gal(b1-4)GlcNAc(b1-2)Man(a1-3)[Neu5Ac(a2-6)Gal(b1-4)GlcNAc(b1-3)Gal(b1-4)GlcNAc(b1-2)Man(a1-6)]GalNAc
In short: as §1

[30] = target: Neu5Ac(a2-6)Gal(b1-4)GlcNAc(b1-3)Gal(b1-4)GlcNAc(b1-3)Gal(b1-4)GlcNAc
In short: as §1

[31] = target: Neu5Ac(a2-6)Gal(b1-4)GlcNAc(b1-3)Gal(b1-4)GlcNAc(b1-3)Gal(b1-4)GlcNAc(b1-2)Man(a1-3)[Neu5Ac(a2-6)Gal(b1-4)GlcNAc(b1-3)Gal(b1-4)GlcNAc(b1-3)Gal(b1-4)GlcNAc(b1-2)Man(a1-6)]GalNAc
In short: as §1

[32] = target: Neu5Ac(a2-6)Gal(b1-4)GlcNAc(b1-3)Gal(b1-4)GlcNAc(b1-3)GalNAc
In short: as §1

[33] = target: Neu5Ac(a2-6)Gal(b1-4)GlcNAc(b1-3)Gal(b1-4)GlcNAc(b1-3)[Neu5Ac(a2-6)Gal(b1-4)GlcNAc(b1-3)Gal(b1-4)GlcNAc(b1-6)]GalNAc
In short: as §1

[34] = target: Neu5Ac(a2-6)Gal(b1-4)GlcNAc(b1-3)Gal(b1-4)GlcNAc(b1-6)[Gal(b1-3)]GalNAc
In short: as §1

[35] = target: Neu5Ac(a2-6)Gal(b1-4)GlcNAc(b1-3)Gal(b1-4)[Fuc(a1-3)]GlcNAc(b1-3)Gal(b1-4)[Fuc(a1-3)]GlcNAc
In short: as §1

[36] = target: Neu5Ac(a2-6)Gal(b1-4)GlcNAc(b1-3)GalNAc
In short: as §1

[37] = target: Neu5Ac(a2-6)Gal(b1-4)GlcNAc(b1-3)[Neu5Ac(a2-6)Gal(b1-4)GlcNAc(b1-6)]GalNAc
In short: as §1

B1: PX9961W-pdi-543-27-543 (Parabacteroides distasonis) (protein)
chain: EGNATTTSYFLNDQQAIDAIDGLYERFHQEGCYGRELFWEQGAACDIVWGRTRGYNSLATLAYTGDESPLRDVFSRMYSTMSRANWIIQELVKKEKGTTLTAVEKRSLGEAYFSRGWAHYLIAYRYGTDKQGVPFVRYEDFPDDYDNSIPPQQATVMDNYKLIIEDMDKAIAYLPIFESYDADNRGRAHQAAAVAFKAKTYAYWATWDATQWNNVIEMVNQLENNYNRDLAPTFAELFSSDLKDYWNAEYLWTIPSIGGALPGGTEFPGIILENKGWGKYNGWGQMKPSYDIYEEMAKDGKGNDRLVRSILEYNQEFPFFGETRKFWSTSDLEAGFMINKYMDAFKYSDPVGEGAVSANGDWPTVRVNFPIIRFAEMLLFRAEAYLMTGQADKATADINRIRLRSNLTPLTGTATMKDLYHERRCELAFEFTDHLFDLKRWNRSSNADIKTLADKELNAHPRIRRYEDRANPESAFTIIGYEDYTNKNAYQAHMMVFPYPSEEITKSNGQLKQNEGY
glycan array binding signal (z-score) [1]: 1.34 | glycan array binding signal (z-score) [2]: 0.696 | glycan array binding signal (z-score) [3]: -0.926 | glycan array binding signal (z-score) [4]: -0.518 | glycan array binding signal (z-score) [5]: -0.182 | glycan array binding signal (z-score) [6]: -0.141 | glycan array binding signal (z-score) [7]: -0.157 | glycan array binding signal (z-score) [8]: -0.925 | glycan array binding signal (z-score) [9]: -0.885 | glycan array binding signal (z-score) [10]: -0.299 | glycan array binding signal (z-score) [11]: -1.14 | glycan array binding signal (z-score) [12]: -0.037 | glycan array binding signal (z-score) [13]: -0.974 | glycan array binding signal (z-score) [14]: -1.33 | glycan array binding signal (z-score) [15]: -0.023 | glycan array binding signal (z-score) [16]: -0.07 | glycan array binding signal (z-score) [17]: -0.733 | glycan array binding signal (z-score) [18]: -0.249 | glycan array binding signal (z-score) [19]: 0.138 | glycan array binding signal (z-score) [20]: 1.38 | glycan array binding signal (z-score) [21]: -1.11 | glycan array binding signal (z-score) [22]: 0.243 | glycan array binding signal (z-score) [23]: 0.11 | glycan array binding signal (z-score) [24]: 0.354 | glycan array binding signal (z-score) [25]: 0.159 | glycan array binding signal (z-score) [26]: 0.776 | glycan array binding signal (z-score) [27]: 0.286 | glycan array binding signal (z-score) [28]: 0.41 | glycan array binding signal (z-score) [29]: 0.474 | glycan array binding signal (z-score) [30]: -0.315 | glycan array binding signal (z-score) [31]: 1.59 | glycan array binding signal (z-score) [32]: -0.05 | glycan array binding signal (z-score) [33]: -0.683 | glycan array binding signal (z-score) [34]: -0.695 | glycan array binding signal (z-score) [35]: -0.696 | glycan array binding signal (z-score) [36]: -0.654 | glycan array binding signal (z-score) [37]: -0.692
